A short description of series [1]: DMDS concentration in chamber atmosphere after nebulization onto wheat grains (SPME-GC-MS). The settings on record: 90 mg DMDS as 30% solution in Radia 7961, nebulized on 1 kg wheat, 20° C.
The nature of series [2]: Spontaneous diffusion of DMDS in a silo of wheat grains (CT by gas chromatography). The settings on record: pure DMDS 30 gm^−3 deposited at surface, 20° C.; for CT at point C: lower end of silo (−72 cm); for CT at point A: surface of grains (0 cm); for CT at point B: −36 cm below grain level.

As to `CSSC` [DMDS, dimethyl disulphide], the “time of treatment to reach useful product CT of 100 ghm^−3” value in series [1] worked out at 30 h. Moreover, the “concentration of DMDS in the atmosphere of the chamber” value in series [1] (reached after first 5 hours, then constant during 5 days) came to 3 gm^−3. Further, in series [2] (1 day), the “CT at point C” value stood at 4 ghm^−3, the “CT at point A” value was 542 ghm^−3 and the “CT at point B” value is recorded as 46 ghm^−3. For the same compound, in series [2] (2 days), the “CT at point C” value stood at 14 ghm^−3, the “CT at point A” value is 630 ghm^−3 and the “CT at point B” value came to 80 ghm^−3. Also, in series [2] (3 days), the “CT at point C” value is listed as 62 ghm^−3, the “CT at point A” value is given as 821 ghm^−3 and the “CT at point B” value came out at 180 ghm^−3.

The record behind these values is US20070191491A1, “[…] OF STORED GOODS, ENCLOSURES, […] WORKS OF ART, WITH SULPHUR COMPOUNDS” (Arkema France, priority 2002, published 2007).
